Data published in PubChem BioAssay AID743255 (National Center for Advancing Translational Sciences (NCATS), 2014).
The campaign covered roughly 390,000 compounds. About 910 (0.23%) were called active. Inconclusive means that the source gave no clear call. Such entries were picked first, then a sample of the others. Calls come from the whole dose curve; as a rule, active = well fitted inhibition curve with a large enough effect; inconclusive = small, poorly fitted or top-dose-only effect; inactive = no such curve, though single readings can be large or run the other way. Potencies of inconclusive entries are doubtful fits and often do not repeat.

Amino acid sequences for entries named in this document (tags omitted). A change or cut given only in a name is not applied to a line headed by its entry.
UniProt O94782: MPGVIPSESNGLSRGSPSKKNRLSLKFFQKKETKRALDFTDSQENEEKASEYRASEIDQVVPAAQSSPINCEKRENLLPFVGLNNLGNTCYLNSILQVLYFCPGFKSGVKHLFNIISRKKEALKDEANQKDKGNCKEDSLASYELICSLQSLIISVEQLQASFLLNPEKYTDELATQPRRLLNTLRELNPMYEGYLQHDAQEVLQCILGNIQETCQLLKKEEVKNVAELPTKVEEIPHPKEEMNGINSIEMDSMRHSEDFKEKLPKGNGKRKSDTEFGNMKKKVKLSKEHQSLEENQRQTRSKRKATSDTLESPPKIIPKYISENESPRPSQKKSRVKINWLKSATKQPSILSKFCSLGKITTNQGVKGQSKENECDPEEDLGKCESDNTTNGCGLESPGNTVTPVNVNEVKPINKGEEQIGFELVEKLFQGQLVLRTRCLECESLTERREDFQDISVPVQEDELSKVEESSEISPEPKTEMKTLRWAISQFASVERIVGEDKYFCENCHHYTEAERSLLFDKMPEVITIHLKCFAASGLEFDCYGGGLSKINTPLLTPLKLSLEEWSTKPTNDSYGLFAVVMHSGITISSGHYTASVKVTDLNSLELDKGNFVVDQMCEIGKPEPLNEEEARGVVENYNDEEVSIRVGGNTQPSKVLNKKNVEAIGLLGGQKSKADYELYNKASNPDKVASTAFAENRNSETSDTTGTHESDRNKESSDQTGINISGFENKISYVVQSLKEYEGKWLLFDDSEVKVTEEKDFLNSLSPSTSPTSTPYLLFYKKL

biological target: Ubiquitin carboxyl-terminal hydrolase 1 (Homo sapiens) (UniProt O94782); assay: Inhibitors of USP1/UAF1: Primary Screen; conditions: recombinant USP1/UAF1, Ub-Rhodamine cleavage fluorescence; activity change, negative = inhibition: at 57.1 µM (top of the series); note: nearly all actives have a fitted effect of over 60% in size
Outline: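 1 nM enzyme complex + cpd, 15 min RT; start with Ub-Rho 150nM final; kinetic fluorescence ex 480/em 540, 6 reads q60 s. Buffer 50mM HEPES pH 7.8, 0.5mM EDTA, 0.1 mg/ml BSA, 1mM TCEP, 0.01% Tween-20.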
% is set by controls: 0 for no effect and ±100 for the full control effect; potency is the fitted concentration of half-maximal effect.

Row | Structure (SMILES) | Potency | activity change, negative = inhibition
1 | COc1ccc(-c2cc3nc(C)c(CCC(=O)Nc4ccccc4C(C)=O)c(C)n3n2)c(OC)c1 | inconclusive: 2.82 µM [inhibitor, full curve, poor fit] | –
2 | Cc1ccc(S(=O)(=O)Nc2cc3c(cc2NCc2ccccc2)n(C)c(=O)n3C)c(C)c1 | – | inactive: -26.6%
3 | COc1ccccc1CN1C[C@@H]2C[C@@H](C3=Cc4cccc(OC)c4OC3)N3CCC[C@@]23C1=O | inconclusive: 11.2 µM [inhibitor, partial curve, poor fit] | –
4 | CCC(C)NC(=O)c1cc(-c2cccc(OC)c2)on1 (stereo not drawn) | inconclusive: 14.1 µM [inhibitor, partial curve] | –
5 | Cc1cccc(NC(=O)CSc2ncc3c(n2)-c2ccccc2N(Cc2ccc(F)cc2)S3(=O)=O)c1C | – | inconclusive: -14% [inhibitor]
6 | CCCCCCSc1ccc([C@H]2N[C@@](C)(C(=O)OC)[C@H]3C(=O)N(CC)C(=O)[C@@H]23)cc1 | inconclusive: 14.1 µM [inhibitor, partial curve] | –
7 | CCOC(=O)c1ccc2c(c1)N(C)C(=O)c1ccccc1S2 | – | inactive: -24.4%
8 | C=CCOc1c(Br)cc(/C=N/Nc2ccc(C(=O)O)cc2)cc1OCC | inconclusive: 44.7 µM [inhibitor, partial curve, poor fit] | –
9 | CC(=O)c1cccc(NC(=O)Cn2nc(C)n3cccc3c2=O)c1 | inconclusive: 0.282 µM [inhibitor, full curve] | –
10 | O=C(NCc1cccc(OC(F)(F)F)c1)c1ccc2c(c1)S(=O)(=O)c1cc(Cl)ccc1C2=O | inconclusive: 70.8 µM [inhibitor, partial curve, poor fit] | –
11 | Nc1nc(N)c2cc(S(=O)(=O)c3cccc(C(F)(F)F)c3)ccc2n1 | inconclusive: 8.91 µM [inhibitor, full curve] | –
12 | CCN(CC)CCCNC(=O)c1ccc2c(=O)n(CCc3ccccc3)c(=O)[nH]c2c1 | – | inactive: -23.8%
13 | Cc1oc2cc([N+](=O)[O-])c(O)c([N+](=O)[O-])c2c1C(=O)c1ccc(Cl)cc1 | inconclusive: 35.5 µM [inhibitor, partial curve] | –
14 | O=C(CSc1nnc(-c2ccccc2)o1)c1cccc([N+](=O)[O-])c1 | – | inactive: -25.4%
15 | Cc1ccc(C(=O)N2CCC(N3CCC(C(=O)N4CCOCC4)CC3)CC2)cc1C | – | inactive: -12.9%
16 | Cc1ccccc1S(=O)(=O)/N=C(/c1ccccc1)N1CCOCC1 | inconclusive: 31.6 µM [inhibitor, partial curve] | –
17 | O=C(COc1nncc2ccccc12)Nc1ccc(F)c(F)c1 | inconclusive: 4.47 µM [inhibitor, full curve] | –
18 | Cc1ccccc1NC(=O)CSC1=Nc2ccccc2C2=NC(CCC(=O)NCc3ccccc3)C(=O)N12 (stereo not drawn) | inconclusive: 28.2 µM [inhibitor, single point] | –
19 | CCc1nnc(NC(=O)C(NS(=O)(=O)c2ccccc2)C(C)C)s1 (stereo not drawn) | – | inactive: -17.4%
20 | O=C1CN(C(=O)c2ccc(Br)o2)C(c2ccccc2)c2cc(Br)ccc2N1 (stereo not drawn) | inconclusive: 50.1 µM [inhibitor, partial curve, poor fit] | –
21 | CSc1nc2sc3c(c2c(=O)n1-c1ccc(F)c(Cl)c1)CCN(C(C)=O)C3 | – | inactive: -24%

Row | Structure (SMILES) | Potency | activity change, negative = inhibition
22 | COc1ccc(C(CC(=O)c2ccc(C)cc2)Sc2ccccc2N)cc1 (stereo not drawn) | – | inactive: -11.4%
23 | COc1ccc(-c2ccc3c(c2)C2CC3CCN2C(=O)OCc2ccccc2)cc1 (stereo not drawn) | inconclusive: 44.7 µM [inhibitor, partial curve, poor fit] | –
24 | S=C(NCc1ccc(Cl)cc1)Nc1ccc(Cl)cc1Cl | – | inactive: 0.288%
25 | CC(=O)Nc1ccc(C(=O)N/N=C/c2cc(Br)cc(Br)c2O)cc1 | inconclusive: 4.47 µM [inhibitor, partial curve] | –
26 | Cc1ccc(-c2nc(C)c(CCNS(=O)(=O)c3ccccc3F)s2)cc1 | – | inactive: -23.5%
27 | O=S(=O)(NCc1cccc(Br)c1)c1ccc(-c2cc(C(F)(F)F)on2)s1 | – | inactive: -17.8%
28 | CN(C(=O)c1cccc(NC(=O)Cc2cccc(NC(=O)C3CCCN(C(=O)CCc4ccccc4)C3)c2)c1)C1CCC1 (stereo not drawn) | – | inactive: -17.8%
29 | COc1ccc(CCNC(=O)CCCn2c(=O)c3ccccc3n(Cc3ccccc3C)c2=O)cc1OC | – | inactive: -15.9%
30 | COc1ccccc1S(=O)(=O)Cc1ccc(C(=O)N2CCN(c3ccccn3)CC2)o1 | – | inactive: -8.57%
31 | CCOC(=O)c1cccc(NC(=O)CN2C(=O)CC(C)(C)Sc3ccccc32)c1 | – | inactive: -19.3%
32 | O=C(Nc1cc(C(F)(F)F)ccc1N1CCOCC1)c1cccc(S(=O)(=O)N2CCOCC2)c1 | inconclusive: 0.251 µM [inhibitor, full curve, poor fit] | –
33 | N#Cc1ccc(C(=O)N2CCC3CC2c2cc(-c4ccccc4)ccc23)cc1 (stereo not drawn) | inconclusive: 44.7 µM [inhibitor, partial curve, poor fit] | –
34 | Cc1ccccc1NC(=O)c1sc2nc3c(cc2c1N)CCCC3 | inconclusive: 39.8 µM [inhibitor, single point] | –
35 | Cc1ccc(C)c(N2CCN(C(=O)c3ccc(CS(=O)(=O)c4ccc(Br)cc4)o3)CC2)c1 | inconclusive: 14.1 µM [inhibitor, partial curve] | –
36 | C#CCOCCOCCOCCNc1nc(N2CCN(C(=O)CCCCCCCCCCNC(=O)[C@@H](CCSC)n3cc(CCO)nn3)CC2)nc(N2CCN(C(=O)CCCCCCCCCCNC(=O)[C@H]([C@@H](C)CC)n3cc(CCCCCN)nn3)CC2)n1 | inconclusive: 56.2 µM [inhibitor, partial curve, poor fit] | –
37 | COc1cccc(NC(=O)CSc2nc3ccccc3nc2N2CCOCC2)c1 | inconclusive: 44.7 µM [inhibitor, single point] | –
38 | COc1ccccc1CNC(=O)CSc1nc2ccccc2c(=O)n1CCCN1CCOCC1 | inconclusive: 4.47 µM [inhibitor, single point] | –
39 | O=C(CSc1nc2ccccc2c(=O)n1Cc1ccccc1)Nc1ccc(Br)cc1C(=O)O | inconclusive: 3.55 µM [inhibitor, full curve] | –
40 | CCN1CCN(c2cc3c(cc2F)c(=O)c(C(=O)O)cn3C2CC2)CC1 | inconclusive: 39.8 µM [inhibitor, partial curve, poor fit] | –
41 | FC(F)Oc1ccc(NC(=S)NCc2nc3ccccc3[nH]2)cc1 | inconclusive: 11.2 µM [inhibitor, partial curve, poor fit] | –
42 | CCN(CC)c1ccc(N=Cc2c(C)[nH]c3ccccc23)cc1 | inconclusive: 44.7 µM [inhibitor, partial curve, poor fit] | –

Part of the list above, with tabs:
Row	Structure (SMILES)	Potency	activity change, negative = inhibition
33	N#Cc1ccc(C(=O)N2CCC3CC2c2cc(-c4ccccc4)ccc23)cc1 (stereo not drawn)	inconclusive: 44.7 µM [inhibitor, partial curve, poor fit]	–
34	Cc1ccccc1NC(=O)c1sc2nc3c(cc2c1N)CCCC3	inconclusive: 39.8 µM [inhibitor, single point]	–

Continued:

Row | Structure (SMILES) | Potency | activity change, negative = inhibition
43 | Cc1nnsc1NC(=O)OCCCl | – | inactive: -16.9%
44 | Cc1cccc(OCC(=O)N(Cc2sccc2C)C2CCS(=O)(=O)C2)c1 (stereo not drawn) | inconclusive: 0.708 µM [inhibitor, full curve] | –
45 | CCOc1ccccc1NC(=S)N1CCC(NC(=O)NC23CC4CC(CC(C4)C2)C3)CC1 | inconclusive: 0.398 µM [inhibitor, full curve, poor fit] | –
46 | C=CCNC(=O)C1CCCN(S(C)(=O)=O)C1 (stereo not drawn) | inconclusive: 31.6 µM [inhibitor, partial curve, poor fit] | –
47 | COc1cccc(C2C(C(=O)Nc3ccc(C)cc3C)=C(C)Nc3c(C(=O)Nc4cccc(C)c4)cnn32)c1OC (stereo not drawn) | – | inactive: -6.1%
48 | O=C(Cn1nc(-c2ccc(Cl)cc2)ccc1=O)NCc1ccccc1Cl | inconclusive: 0.316 µM [inhibitor, full curve] | –
49 | Cc1nnc(NS(=O)(=O)c2ccc(N)cc2)s1 | inconclusive: 28.2 µM [inhibitor, single point] | –
50 | Cc1ccc(C(=O)NCC(c2cccs2)S(=O)(=O)c2cccs2)cc1 (stereo not drawn) | inconclusive: 4.47 µM [inhibitor, full curve] | –
51 | Clc1ccc(CNc2ccc(N3CCN(Cc4ccccc4)CC3)cc2)cc1 | – | inconclusive: -27.2% [inhibitor]
52 | Cc1ccc(C)c(S(=O)(=O)Nc2ccc(C(=O)NCC(c3ccco3)N(C)C)cc2)c1 (stereo not drawn) | – | inactive: -16.6%
53 | CCc1ccc(CNC(=O)c2ccc(-c3nc(CS(=O)(=O)c4ccccc4)c(C)o3)cc2)cc1 | inconclusive: 5.01 µM [inhibitor, full curve, poor fit] | –
54 | COc1ccc(-c2noc(CCC(=O)N3CCN(c4ccccc4F)CC3)n2)cc1 | inconclusive: 0.0891 µM [inhibitor, full curve, poor fit] | –
55 | O=C1N[C@@H](c2ccccc2)COC(=O)[C@@H](Cc2ccc(F)cc2)CC/C=C/C[C@@H]1CC(=O)N(CCO)Cc1ccccc1 | inconclusive: 44.7 µM [inhibitor, partial curve, poor fit] | –
56 | CCOC(=O)C(=O)Nc1sc(C(=O)N(CC)CC)c(C)c1C#N | – | inactive: -16.3%
57 | CCN1C[C@@H]2[C@@H]3C(=O)N(C)C(=O)[C@@H]3[C@](Cc3ccccc3)(C1=O)N2C(=O)c1ccc(C(C)(C)C)cc1 | inconclusive: 15.8 µM [inhibitor, partial curve, poor fit] | –
58 | CCOc1ccccc1-c1c2cc(O)c(=O)cc-2oc2cc(O)c(O)cc12 | inconclusive: 6.31 µM [inhibitor, partial curve, poor fit] | –
59 | CN(Cc1ccc(OC(F)F)cc1)C(=O)c1cccc(S(=O)(=O)N2CCN(Cc3ccccc3)CC2)c1 | – | inactive: -11.3%
60 | O=C(OCc1ccccc1)c1ccc(NCc2cc(O)ccc2O)cc1 | – | inactive: -17.8%
61 | COc1ccc(N2CCN(C(=O)c3nc(SC)ncc3Cl)CC2)cc1 | inconclusive: 1000 µM [inhibitor, partial curve] | –
62 | CCN(CC)S(=O)(=O)c1cc(-c2onc(C)c2C)ccc1OC | inconclusive: 3.98 µM [inhibitor, partial curve] | –
63 | Brc1ccc(CSc2nnc(Cc3c[nH]c4ccccc34)o2)cc1 | – | inactive: -17.1%

Single records (already shown):
`Brc1ccc(CSc2nnc(Cc3c[nH]c4ccccc34)o2)cc1` is listed as activity change, negative = inhibition: inactive: -17.1%
`C=CCNC(=O)C1CCCN(S(C)(=O)=O)C1` (stereo not drawn) is listed as Potency: inconclusive: 31.6 µM [inhibitor, partial curve, poor fit]
`Nc1nc(N)c2cc(S(=O)(=O)c3cccc(C(F)(F)F)c3)ccc2n1` is listed as Potency: inconclusive: 8.91 µM [inhibitor, full curve]
`Cc1nnc(NS(=O)(=O)c2ccc(N)cc2)s1` is listed as Potency: inconclusive: 28.2 µM [inhibitor, single point]
